Results reported in PubChem BioAssay (Tox21).
“And” between values parts separate entries of the source, which are not always exact repeats. Identical values can stand only once. This list was built around the results that the source calls inconclusive (neither active nor inactive); the mix of calls is not that of the screen. Potencies of inconclusive entries are doubtful fits and often do not repeat. More than one record can exist for a structure, and the calls need not agree. The source made the active and inactive calls. Unless noted, calls come from the whole dose curve.

Chains of the proteins cited; added tags and fusions are not shown. Lines headed by an entry give the natural chain unless they say otherwise; changes in a name come on top.
UniProt P28223, whole entry, looked up: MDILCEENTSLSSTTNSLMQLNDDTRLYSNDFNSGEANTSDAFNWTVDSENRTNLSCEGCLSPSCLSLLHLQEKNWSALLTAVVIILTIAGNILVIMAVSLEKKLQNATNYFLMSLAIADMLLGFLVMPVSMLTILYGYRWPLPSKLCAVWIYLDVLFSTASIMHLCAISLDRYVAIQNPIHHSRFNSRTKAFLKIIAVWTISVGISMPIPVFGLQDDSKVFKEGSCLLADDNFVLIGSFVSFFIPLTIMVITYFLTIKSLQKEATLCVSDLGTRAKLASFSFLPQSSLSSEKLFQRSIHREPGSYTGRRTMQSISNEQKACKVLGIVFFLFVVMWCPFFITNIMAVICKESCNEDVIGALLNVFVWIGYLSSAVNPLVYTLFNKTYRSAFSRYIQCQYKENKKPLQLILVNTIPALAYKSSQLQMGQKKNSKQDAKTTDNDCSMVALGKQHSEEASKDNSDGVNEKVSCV
UniProt P11229: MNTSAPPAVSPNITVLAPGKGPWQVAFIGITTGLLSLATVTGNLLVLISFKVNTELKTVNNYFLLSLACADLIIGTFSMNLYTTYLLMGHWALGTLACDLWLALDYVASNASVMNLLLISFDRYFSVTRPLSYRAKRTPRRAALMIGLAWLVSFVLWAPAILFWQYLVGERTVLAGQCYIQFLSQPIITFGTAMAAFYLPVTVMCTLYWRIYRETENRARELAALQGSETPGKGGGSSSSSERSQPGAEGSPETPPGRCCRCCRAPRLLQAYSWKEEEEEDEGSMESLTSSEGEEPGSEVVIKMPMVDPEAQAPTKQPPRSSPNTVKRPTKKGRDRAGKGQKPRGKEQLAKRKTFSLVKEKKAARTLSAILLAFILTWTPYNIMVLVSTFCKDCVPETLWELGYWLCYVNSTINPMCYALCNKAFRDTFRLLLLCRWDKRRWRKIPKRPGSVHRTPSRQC

Test system: not listed separately
Assay: p53 small molecule agonists, cell-based qHTS assay: qHTS cell viability counter screen (AID 1963581); note: nearly all actives have a fitted effect of over 45% in size
Settings: p53RE-bla HCT-116 viability, ATP luminescence, 16 h; series mostly up to 66 µM
Procedure, shortened: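 p53RE-bla HCT-116 cells were exposed to compounds for 16 h at 37 C; after the beta-lactamase FRET read in the same wells, CellTiter-Glo was added and luminescence (intracellular ATP) read after 30 min at room temperature.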
Potency is the fitted concentration of half-maximal effect.

For `Nc1ccc2c(O)cc(S(=O)(=O)O)cc2c1`, which Potency is on record?
The Potency was “inactive”.

For `O=C(Nc1cccc(Cl)c1)OCC#CCCl`, which Potency is on record?
Its Potency is inconclusive: 25.7 µM [rising, single point].

For `CCOC(=O)C1=C(C)NC(C)=C(C(=O)OCC)C1c1ccccc1/C=C/C(=O)OC(C)(C)C`, which Potency is on record?
Its Potency is inconclusive: 22.3 µM [cytotoxic, single point].

Test system: not listed separately
Assay: p53 small molecule agonists, cell-based qHTS assay (AID 1963582; active = well fitted activation curve with a large enough effect in the signal ratio in the repeat runs, not every such curve was filed as active; inconclusive = weak or mixed curves; the % refers to the signal ratio; for activation: % is set by controls: 0 for no effect and ±100 for the full control effect)
Settings: HCT-116 p53RE-bla reporter, beta-lactamase FRET ratio, 16 h; activation: at 66 µM (top of the series) unless noted
Procedure, shortened: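 p53RE-bla beta-lactamase reporter cells rested 5 h at 37 C/5% CO2, then received compounds in DMSO by pin transfer and were incubated 16 h at 37 C. LiveBLAzer B/G FRET substrate was loaded for 2 h at room temperature before fluorescence reading.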

Which Potency does the source give for `OCc1c[nH]c2ccccc12` here?
The Potency was inconclusive: 13.3 µM [fluorescent, full curve, poor fit].

With `O=C(c1cc(O)c(O)c(O)c1)c1ccc(O)c(O)c1O` as the molecule, how does the Potency read?
The Potency was inconclusive: 5.12 µM [fluorescent, partial curve] and inconclusive: 51.3 µM [activator, single point] and inconclusive: 25.1 µM [activator, partial curve, poor fit].

Which results are given for `COC(=O)Nc1nc2ccc(Sc3ccccc3)cc2[nH]1`?
activation: inconclusive: 8.72% [at 30.3 µM]; Potency: active: 0.363 µM

For `Nc1nc(Cl)nc2c1ncn2[C@H]1C[C@H](O)[C@@H](CO)O1`, which Potency is on record?
Its Potency is active: 0.572 µM.

Which Potency does the source give for `c1ccc2c(c1)c1cccc3ccc4cccc2c4c31` here?
Its Potency is active: 45.4 µM and inactive.

For `Cc1ccc2nc(-c3ccc(N)cc3)sc2c1S(=O)(=O)O`, which Potency is on record?
The Potency was inconclusive: 5.67 µM [fluorescent, full curve].

Which Potency does the source give for `CCc1c2c(nc3ccc(OC(=O)N4CCC(N5CCCCC5)CC4)cc13)-c1cc3c(c(=O)n1C2)COC(=O)[C@]3(O)CC` here?
The Potency was active: 5 µM.

Which Potency does the source give for `Cc1c2ccccc2c(C)c2c1ccc1ccccc12` here?
Its Potency is inconclusive: 16.1 µM [fluorescent, partial curve] and inconclusive: 6.46 µM [fluorescent, full curve].

With `CCCCCCCCC(=O)O` as the molecule, how does the Potency read?
The Potency was inconclusive: 49.7 µM [activator, partial curve, poor fit] and inactive.

Which Potency does the source give for `O=c1[nH][nH]c2ccccc12` here?
Its Potency is inconclusive: 14.7 µM [fluorescent, full curve, poor fit].

For `CCC1(c2ccccc2)C(=O)NCNC1=O`, which Potency is on record?
The Potency was “inactive”.

Which Potency does the source give for `Cc1ccc(Cl)cc1` here?
The Potency was “inactive”.

With `CCCCC/C=C\C/C=C\CCCCCCCC(=O)NC(C)c1ccccc1` (stereo unspecified) as the molecule, how does the Potency read?
The Potency was inconclusive: 7.07 µM [rising, full curve, poor fit].

For `Nc1ccc2c(O)cc(S(=O)(=O)O)cc2c1`, which Potency is on record?
Its Potency is active: 12.9 µM and active: 16.2 µM.

Which Potency does the source give for `O=C(Nc1cccc(Cl)c1)OCC#CCCl` here?
Its Potency is inconclusive: 40.8 µM [fluorescent, partial curve].

With `CCCCc1nc2cccnc2n1Cc1ccc(-c2ccccc2-c2nnn[nH]2)cc1` as the molecule, how does the Potency read?
Its Potency is inconclusive: 20.4 µM [rising, full curve].

For `CCOC(=O)C1=C(C)NC(C)=C(C(=O)OCC)C1c1ccccc1/C=C/C(=O)OC(C)(C)C`, which Potency is on record?
Its Potency is inconclusive: 25.1 µM [falling, single point].

For `CCN(CC)c1ccc2c(C)cc(=O)oc2c1`, which Potency is on record?
Its Potency is active: 25.9 µM and active: 32.4 µM.

Molecular target: 5-hydroxytryptamine receptor 2A (Homo sapiens) (UniProt P28223)
Assay: 5-hydroxytryptamine receptor 2A (HTR2A) small molecule antagonists, cell-based qHTS assay (AID 1963586); note: nearly all actives have a fitted effect of over 45% in size
Settings: HTR2A-CHO cells, DOI-induced calcium flux, fluorescence; series mostly up to 61.5 µM
Procedure, shortened: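 Antagonist-mode intracellular calcium assay: DOI (4 nM) added after 5 min compound pre-incubation at room temperature to dye-loaded HTR2A-CHO cells. Fluorescence followed for 3 min, sampled every second.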

Which Potency does the source give for `Nc1c2c(nc3c1CCC3)CCCC2` here?
Its Potency is inconclusive: 0.41 µM [inhibitor, single point].

For `c1ccc2cc(Nc3ccc(Nc4ccc5ccccc5c4)cc3)ccc2c1`, which Potency is on record?
The Potency was inconclusive: 0.0169 µM [inhibitor, full curve, poor fit].

Which Potency does the source give for `CC(=O)c1ccc2c(c1)N(CCCN(C)C)c1ccccc1S2` here?
The Potency was active: 0.0259 µM.

With `OC(CCl)CCl` as the molecule, how does the Potency read?
Its Potency is inconclusive: 0.84 µM [inhibitor, single point].

With `CCn1c2ccccc2c2cc(N)ccc21` as the molecule, how does the Potency read?
Its Potency is inconclusive: 47.2 µM [inhibitor, partial curve, poor fit].

Molecular target: 5-hydroxytryptamine receptor 2A (Homo sapiens) (UniProt P28223)
Assay: 5-hydroxytryptamine receptor 2A (HTR2A) small molecule agonists, cell-based qHTS assay (AID 1963587); note: nearly all actives have a fitted effect of over 30% in size
Settings: HTR2A-CHO cells, calcium flux fluorescence, agonist mode; series mostly up to 76.8 µM
Procedure, shortened: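 CHO cells stably expressing human HTR2A, plated 18 h, loaded with calcium dye 1 h at 37 C. Agonist mode: compounds added and intracellular calcium fluorescence recorded kinetically for 2 min at 1 sec intervals.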

Which Potency does the source give for `Cc1c2ccccc2c(C)c2c1ccc1ccccc12` here?
Its Potency is active: 10.9 µM.

For `CCn1c2ccccc2c2cc(N)ccc21`, which Potency is on record?
Its Potency is inconclusive: 27.3 µM [activator, partial curve].

Which Potency does the source give for `Nc1ccc2c(O)cc(S(=O)(=O)O)cc2c1` here?
The Potency was inconclusive: 55 µM [activator, single point].

Molecular target: Muscarinic acetylcholine receptor M1 (Homo sapiens) (UniProt P11229)
Assay: Cholinergic receptor muscarinic 1 (CHRM1) small molecule antagonists, cell-based qHTS assay (AID 1963588); note: nearly all actives have a fitted effect of over 40% in size
Settings: CHRM1-CHO antagonist mode, calcium flux fluorescence; series mostly up to 61.5 µM
Procedure, shortened: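 CHRM1-CHO calcium-flux assay, antagonist mode. Cells were seeded 18 h, dye-loaded 1 h at 37 C and given compound for 5 min at RT, then acetylcholine was added at 50nM. FDSS fluorescence was read 3 min; 15 concentrations, three runs.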

For `CCn1c2ccccc2c2cc(N)ccc21`, which Potency is on record?
Its Potency is inconclusive: 37.1 µM [inhibitor, partial curve].

Which Potency does the source give for `Nc1ccc2c(O)cc(S(=O)(=O)O)cc2c1` here?
The Potency was inconclusive: 0.015 µM [inhibitor, full curve, poor fit].

Which Potency does the source give for `CCN(CC)c1ccc2c(C)cc(=O)oc2c1` here?
Its Potency is “inactive”.

Test system: not listed separately
Assay: cAMP Responsive Elements (CRE) small molecule agonists, cell-based qHTS assay (AID 1963590); for activation: % is set by controls: 0 for no effect and ±100 for the full control effect
Settings: CRE-bla HEK293T, beta-lactamase FRET ratio, 3 h; activation: at 92.4 µM (top of the series) unless noted
Procedure, shortened: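 CRE-bla HEK 293T cells in DMEM with 10% dialyzed FBS, NEAA, pyruvate and 25 mM HEPES were plated 18 h at 37 C/5% CO2, then exposed to compounds in DMSO for 3 h before LiveBLAzer B/G FRET substrate addition.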

Which Potency does the source give for `OCc1c[nH]c2ccccc12` here?
The Potency was inconclusive: 38.6 µM [fluorescent, partial curve, poor fit].

With `O=S(=O)(O)c1ccc(Nc2nc(Nc3ccc(/C=C/c4ccc(Nc5nc(Nc6ccc(S(=O)(=O)O)cc6)nc(N(CCO)CCO)n5)cc4S(=O)(=O)O)c(S(=O)(=O)O)c3)nc(N(CCO)CCO)n2)cc1` as the molecule, how does the Potency read?
The Potency was “inactive”.

Which Potency does the source give for `O=C(c1cc(O)c(O)c(O)c1)c1ccc(O)c(O)c1O` here?
Its Potency is inconclusive: 68.4 µM [rising, single point] and inconclusive: 68.6 µM [rising, single point].

Which results are given for `COC(=O)Nc1nc2ccc(Sc3ccccc3)cc2[nH]1`?
activation: inconclusive: 13.8% [at 42.5 µM]; Potency: inconclusive: 3.86 µM [fluorescent, full curve, poor fit]

For `Nc1nc(Cl)nc2c1ncn2[C@H]1C[C@H](O)[C@@H](CO)O1`, which Potency is on record?
Its Potency is active: 60.7 µM.

Which Potency does the source give for `c1ccc2c(c1)c1cccc3ccc4cccc2c4c31` here?
Its Potency is inconclusive: 68.1 µM [fluorescent, single point].

For `c1ccc2cc(Nc3ccc(Nc4ccc5ccccc5c4)cc3)ccc2c1`, which Potency is on record?
Its Potency is inconclusive: 5.48 µM [rising, full curve].

With `Cc1c2ccccc2c(C)c2c1ccc1ccccc12` as the molecule, how does the Potency read?
The Potency was inconclusive: 19.1 µM [fluorescent, full curve] and inconclusive: 30.6 µM [fluorescent, partial curve].

With `CCCCCCCCC(=O)O` as the molecule, how does the Potency read?
The Potency was inconclusive: 29.7 µM [rising, partial curve] and inconclusive: 48.6 µM [rising, partial curve].

Which Potency does the source give for `O=c1[nH][nH]c2ccccc12` here?
The Potency was inconclusive: 55.5 µM [rising, partial curve].

Which Potency does the source give for `CCCCC/C=C\C/C=C\CCCCCCCC(=O)NC(C)c1ccccc1` (stereo unspecified) here?
The Potency was inconclusive: 26.6 µM [rising, partial curve].

For `CN(C)[C@@H]1C(=O)C(C(N)=O)=C(O)[C@@]2(O)C(=O)C3=C(O)c4c(O)cccc4C[C@H]3C[C@@H]12`, which Potency is on record?
The Potency was inconclusive: 29.8 µM.

With `CCn1c2ccccc2c2cc(N)ccc21` as the molecule, how does the Potency read?
Its Potency is inconclusive: 10.9 µM [rising, partial curve].

For `O=C(Nc1cccc(Cl)c1)OCC#CCCl`, which Potency is on record?
The Potency was inconclusive: 61.1 µM [rising, partial curve].

With `CCCCc1nc2cccnc2n1Cc1ccc(-c2ccccc2-c2nnn[nH]2)cc1` as the molecule, how does the Potency read?
Its Potency is inconclusive: 61.1 µM [fluorescent].

With `CCOC(=O)C1=C(C)NC(C)=C(C(=O)OCC)C1c1ccccc1/C=C/C(=O)OC(C)(C)C` as the molecule, how does the activation read?
The activation was inconclusive: 12.3% [at 42.5 µM].

Which Potency does the source give for `CCN(CC)c1ccc2c(C)cc(=O)oc2c1` here?
The Potency was inconclusive: 30.9 µM [fluorescent, partial curve] and inconclusive: 54.5 µM [fluorescent, partial curve].
